Measured values from patent publication US20140227293A1.
No constants are given. Whether binding was seen depends on the method and setting. For part of these data: In cells and extracts the contact can be indirect. Some entries that bind do so weakly or less than the wild type. Where a sequence is shown, tags or fusion partners need not be part of it.

Key:
[1] = target: SH3 domain of SPIN90/WISH (SH3 Protein Interacting with Nck, 90 kDa) on the Panomics SH3 array (Homo sapiens (Human)) (UniProt Q9NZQ3); assay: SH3 domain protein array (34 SH3 domains) blotted with GST-IGPR-1 cytoplasmic region, detected with anti-IGPR-1 antibody
[2] = target: T1, SH3 domain of BPAG1 (Bullous pemphigoid antigen-1) on the Panomics SH3 array (UniProt Q03001); assay: as above
T1 sequence (looked up): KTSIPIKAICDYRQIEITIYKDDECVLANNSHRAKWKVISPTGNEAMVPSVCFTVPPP

[3] = target: T2, SH3 domain of MIA (Melanoma inhibitory activity) on the Panomics SH3 array (UniProt Q16674); assay: as above
T2 sequence (looked up): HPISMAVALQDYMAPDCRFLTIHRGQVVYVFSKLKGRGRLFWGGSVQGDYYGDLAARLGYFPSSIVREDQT

[4] = target: SH3 domain of CACNB2 (calcium channel beta 2) on the Panomics SH3 array (Oryctolagus cuniculus (Rabbit)) (UniProt P54288); assay: as above
[5] = target: T3, immunoglobulin containing and proline rich receptor-1 (IGPR-1), human, full length, ectopically expressed in PAE cells (human) (UniProt Q96BF3); assay: GST-SH3 pull-down from lysates of PAE cells expressing IGPR-1, anti-IGPR-1 immunoblot
T3 sequence (chain, N-glycosylated (apparent 55 kDa, 31 kDa after PNGase F)): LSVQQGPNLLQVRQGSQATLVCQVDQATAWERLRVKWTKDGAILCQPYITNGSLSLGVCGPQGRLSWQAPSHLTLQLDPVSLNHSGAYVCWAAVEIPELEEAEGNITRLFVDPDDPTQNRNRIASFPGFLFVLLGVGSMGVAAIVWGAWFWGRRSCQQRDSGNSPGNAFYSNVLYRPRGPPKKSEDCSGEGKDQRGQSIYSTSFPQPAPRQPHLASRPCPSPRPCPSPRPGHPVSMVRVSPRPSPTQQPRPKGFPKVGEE

[6] = target: T3, immunoglobulin containing and proline rich receptor-1 (IGPR-1), human, full length, ectopically expressed in PAE cells (human); assay: figure legend (FIG. 6D schematic; FIG. 6E GST-SH3 pull-down)

Measured: binding

B1: purified GST-IGPR-1 (cytoplasmic region) (protein, not shown: a dimerising Fc or GST)
chain: WGRRSCQQRDSGNSPGNAFYSNVLYRPRGPPKKSEDCSGEGKDQRGQSIYSTSFPQPAPRQPHLASRPCPSPRPCPSPRPGHPVSMVRVSPRPSPTQQPRPKGFPKVGEE
binds: [1] | [2] | [3] | [4]

B2: GST recombinant SH3 domain of BPAG1 (protein, UniProt Q03001 887-944, looked up, not shown: a dimerising Fc or GST)
chain: KTSIPIKAICDYRQIEITIYKDDECVLANNSHRAKWKVISPTGNEAMVPSVCFTVPPP
binds: [5] | [6]
